From ChEMBL document CHEMBL3988442, “University of Dundee, Small-Polar-MMV Screening Library” (2021).

A: 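Whole-cell growth test on Mycobacterium tuberculosis, read after 4 days in a medium based on cholesterol and the lipid DPPC; the read-out is not stated. Tested at 50 µM. The record gives no direction; compounds that gave an IC50 in retests scored well above the rest, so higher reads as more growth inhibition. Of about 69,000 compounds tested this way, about 370 (0.54%) reached 50% or more in at least one test.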
B: 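Phenotypic screen: M. tuberculosis growth, glucose 7H9 medium, 3 days; the read-out is not stated. Compounds at 50 µM. Higher reads as more growth inhibition (inferred: compounds with an IC50 in retests scored well above the rest). Size under these conditions: about 69,000 compounds, about 760 of them at 50% or above in at least one test.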

Results are given as percent effect.
The controls that fix the scale are not given in the record; negative values are as filed.
This is an unselected part of the compounds tested.
Two or more numbers in one place are separate tests of the same structure; such repeats can differ widely.

Compound,A,B
CN(C)S(=O)(=O)NCc1cccnc1Oc1ccc(F)c(F)c1,-7.198%,2.923%
CCOC(=O)N1CCN(C(=O)c2cc(-c3ccc(Cl)cc3Cl)on2)CC1,14.53%,33.7%
CN1CCN(C(=O)CCc2cccnc2)c2ccc(F)cc21,21.42%,33.63% and 14.95%
CC(C)c1nc(-c2cc(C(=O)O)c3ccccn23)cs1,-8.024%,14.95% and 22.16%
CNS(=O)(=O)c1ccc(CNC(=O)Nc2cn[nH]c2)cc1,-8.231%,-30.59% and 7.211%
CCNc1ccnc(NCC2CNCCO2)n1 (stereo not given),-15.03%,-37.68%
Cc1nc(C2(O)CCCNCC2)sc1CCOc1ccc(F)c(F)c1.Cl (stereo not given),12.25%,25.03%
Cc1nc(CN2CCN(C(=O)c3sccc3C)CC2)cs1,-9.349%,9.334%
Cc1cnn(CCNC(C)c2nnc(-c3ccccc3)o2)c1 (stereo not given),25.3% and 24.33%,27.49% and 41.43%
CC(C)C1CN(C(=O)c2cn3cc(Cl)cnc3n2)CCCN1CC1CC1 (stereo not given),-17.49%,27.28%
COc1ccc(C)cc1NC(=O)CNc1ccn(CC(N)=O)n1,-27.57%,-23.94%
CCS(=O)(=O)NCCNC(C)(C)c1nc(C)cs1,19.45%,9.609%
CC(C)NC(=O)N1CCc2onc(C(=O)NCCN(C)C)c2C1.O=C(O)C(F)(F)F,-6.737%,-16.65% and -0.2241%
O=C(O)C(F)(F)F.c1csc(CN2CCCn3nnc(COCC4CC4)c3C2)n1,-10.14% and -7.253%,-10.98%
CC(=O)c1ccc(-n2c(C)cn(CCC(=O)NC(N)=O)c2=O)cc1,3.74%,19.34%
O=C(O)C(F)(F)F.[H][C@@]12CCN(CC3CCC3)C[C@@]1([H])[C@H](C(=O)NC1CC1)CCO2,-3.747%,-5.954%
NC(=O)CS(=O)(=O)Cc1csc(-c2ccc(F)cc2)n1,-18.51%,-51.57%
CCOCCCNC(=O)c1cc(OC)c2ccoc2c1,14.93%,17.35%
Cc1ccc2cc(C3(O)CCN(C(=O)CSC(C)C)CC3)ccc2n1,-15.19%,-37.77%
CC(C)NC(=O)C1CCc2nnc(CNC(=O)C3CC3)n21 (stereo not given),-3.231%,9.66%
Cc1ccc2c(c1)C1(CCNCC1)CC2OCC1CC1 (stereo not given),6.748% and -18.82%,8.373% and -3.495%
Cc1cc(C2CCN(S(=O)(=O)N(C)C)CC2)ccn1,-18.97%,27.09%
N#Cc1cccc(CN2CCCC2Cn2cncn2)c1 (stereo not given),-3.789%,-1.015%
CCNC(=O)C(C)NC(=O)Nc1ccccc1SCC (stereo not given),6.034%,-3.842% and -11.28%
CCN1CCC2(CN(C(C)=O)CC23CCN(C(=O)N(C)C)CC3)C1=O (stereo not given),7.904%,20.98%
CC(C)Cc1cc(C(=O)N2CCC(Cc3cnn(C)c3)C2)cc(O)n1 (stereo not given),-0.8733%,-1.418% and -6.456%
CCOC(=O)c1cnn(-c2cc(Oc3ccccc3C)ncn2)c1N,-20.01%,-31.85%
CCc1ccccc1C(=O)N1CCCC1CC(=O)c1cnn(C)c1 (stereo not given),-0.2888%,32.59%
Cn1cnc2c1C(COCC1CC1)CN(Cc1ccsc1)C2 (stereo not given),-10.72%,1.554%
CCc1nnc2n1CCN(CC(O)c1ccc3c(c1)OCCO3)C2 (stereo not given),0.6144%,-34.45%
COc1ccnc(N2CCCN(C(=O)CCc3cnn(C)c3)CC2)n1,15.99%,-24.35%
Cc1noc(-c2ccc(N3CCN(Cc4nccn4C)CC3)nc2)n1,-3.743%,-28.1% and -2.741%
O=C(COc1ccccc1NCc1ccoc1)N1CCOCC1,-4.925%,-5.591%
N#Cc1cccc(OC2CCN(C(=O)c3cncc(O)c3)CC2)c1,-4.827%,-3.676% and -5.557%
CC(C)(C)c1cc(CN2CCOCC(O)C2)n[nH]1 (stereo not given),-19.59%,-15.46%
O=C(O)C(F)(F)F.[H][C@@]12CN(C(=O)c3ccncc3F)C[C@]1([H])OCCN2C,9.384%,-29.27% and -0.8794%
CCCS(=O)(=O)N1CCN(c2cc(-n3nc(C)cc3C)nc(C)n2)CC1,-2.277%,13.25%
Cl.Cn1cc(CNC2CCC(O)CC2)c(-c2cc3ccccc3o2)n1 (stereo not given),-7.779%,-19.57%
Cc1ccc2nc(C)cc(C(=O)NC(C)c3nnn[nH]3)c2c1 (stereo not given),-17.8%,3.695%
CC(C)N1CCCCC1CCn1cnc2cc(C(F)(F)F)ccc2c1=O (stereo not given),27.88%,10.53%

3 of the entries, repeated:

| Compound | A | B |
|---|---|---|
| `Cc1cc(C2CCN(S(=O)(=O)N(C)C)CC2)ccn1` | -18.97% | 27.09% |
| `Cl.Cn1cc(CNC2CCC(O)CC2)c(-c2cc3ccccc3o2)n1` (stereo not given) | -7.779% | -19.57% |
| `NC(=O)CS(=O)(=O)Cc1csc(-c2ccc(F)cc2)n1` | -18.51% | -51.57% |